No constants are given. Whether binding was seen depends on the method and setting. Binding seen in cells or lysates may run through a third protein. Some results given as binding are weak or reduced against the parent protein; the word gives no strength. Sequences can lack the tags named with a protein.
T1: FLAG-Rif1 C552 (mouse) (UniProt Q6PR54)
T1 sequence: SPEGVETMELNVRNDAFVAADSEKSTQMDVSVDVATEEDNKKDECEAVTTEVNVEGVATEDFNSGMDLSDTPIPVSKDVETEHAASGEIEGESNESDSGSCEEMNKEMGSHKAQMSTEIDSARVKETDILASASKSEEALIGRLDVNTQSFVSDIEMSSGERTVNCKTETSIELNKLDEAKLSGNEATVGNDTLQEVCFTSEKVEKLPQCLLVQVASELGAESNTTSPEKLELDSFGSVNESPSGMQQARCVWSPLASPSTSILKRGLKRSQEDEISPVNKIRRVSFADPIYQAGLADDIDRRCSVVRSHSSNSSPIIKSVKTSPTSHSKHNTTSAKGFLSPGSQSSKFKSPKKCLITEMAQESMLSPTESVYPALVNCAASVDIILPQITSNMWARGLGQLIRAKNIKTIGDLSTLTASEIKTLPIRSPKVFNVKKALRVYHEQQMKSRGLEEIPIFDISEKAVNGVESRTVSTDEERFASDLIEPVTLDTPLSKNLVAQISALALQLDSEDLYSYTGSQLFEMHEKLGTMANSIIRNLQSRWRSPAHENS


Experiments:
[1] = biological target: T1, FLAG-Rif1 C552 (mouse); assay: co-IP; lysates of transfected cells (0.5 mg protein, buffer A diluted to 150 mM NaCl, 1% NP-40) precipitated with anti-FLAG M2 agarose; washed 4 times with buffer A, 150 mM NaCl; immunoblot for endogenous Rif1
[2] = biological target: endogenous Rif1 (mouse (endogenous in mouse ES cells)) (UniProt Q6PR54); assay: co-IP; lysates of transfected cells (0.5 mg protein, buffer A diluted to 150 mM NaCl, 1% NP-40) precipitated with 1 ug anti-Rif1N antibody and protein A/G Sepharose (endogenous Rif1); washed 4 times with buffer A, 150 mM NaCl; immunoblot for FLAG-tagged Rif1

Row | binding [1] | binding [2] | Molecule
1 | binds | – | endogenous Rif1 (from UniProt Q6PR54 1-2419)
2 | – | binds | FLAG-Rif1 C552 (domain or fragment, UniProt Q6PR54 1868-2419) SPEGVETMELNVRNDAFVAADSEKSTQMDVSVDVATEEDNKKDECEAVTTEVNVEGVATEDFNSGMDLSDTPIPVSKDVETEHAASGEIEGESNESDSGSCEEMNKEMGSHKAQMSTEIDSARVKETDILASASKSEEALIGRLDVNTQSFVSDIEMSSGERTVNCKTETSIELNKLDEAKLSGNEATVGNDTLQEVCFTSEKVEKLPQCLLVQVASELGAESNTTSPEKLELDSFGSVNESPSGMQQARCVWSPLASPSTSILKRGLKRSQEDEISPVNKIRRVSFADPIYQAGLADDIDRRCSVVRSHSSNSSPIIKSVKTSPTSHSKHNTTSAKGFLSPGSQSSKFKSPKKCLITEMAQESMLSPTESVYPALVNCAASVDIILPQITSNMWARGLGQLIRAKNIKTIGDLSTLTASEIKTLPIRSPKVFNVKKALRVYHEQQMKSRGLEEIPIFDISEKAVNGVESRTVSTDEERFASDLIEPVTLDTPLSKNLVAQISALALQLDSEDLYSYTGSQLFEMHEKLGTMANSIIRNLQSRWRSPAHENS
